# Primary screen of a compound library

Measurements from “University of Dundee, Small-Polar-MMV Screening Library” (2021), ChEMBL document CHEMBL3988442.

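Viability assay of Plasmodium falciparum sporozoites; the read-out is not stated. The concentration is filed as 10 mM, unlikely as a test dose, so the dose is not known. Direction is inferred from retests: higher values go with lower viability. Strong results were mostly tested again. About 34,000 compounds were tested under these conditions; 0.84% (about 280) showed 50% or more at least once.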

Values are the deposited “Percent Effect”, in %. The record does not define 0% and 100%; most values in the screen are far below 50% and negative numbers occur (in some assays of this library far below -100). Compounds were drawn at random from those tested, without regard to their results. Two or more numbers in one place are separate tests of the same structure; such repeats can differ widely.

| Compound | percent effect |
|---|---|
| `CC(C)c1nc2c(n1C)CCN(CC(=O)Nc1ccnn1C(C)C)C2` | 2.347 |
| `Cc1ccc(CN(CCCN2CCOCC2)Cc2cncn2C)o1.O=C(O)CC(O)(CC(=O)O)C(=O)O` | 8.944 |
| `O=C(CC1CCCO1)N1CCCN(c2cccnn2)CC1` (stereo not given) | 15.31 |
| `CC(Cn1cccn1)NC(=O)N1CCCN(Cc2cccs2)CC1` (stereo not given) | -8.564 |
| `NC(=O)c1cc(NC(=O)N2CCCCCC2)ccc1F` | 7.666 |
| `Br.COc1ccc(C(=O)CN(C2=NCCCCC2)c2ccccc2)cc1` | -19.53 |
| `O=C(O)C(F)(F)F.[H][C@@]12CN(C(=O)c3ccn(C)n3)C[C@]1([H])OCCN2c1ncccn1` | 5.902 |
| `CCn1cnnc1CNC(=O)N1CCN(c2ccccc2Cl)CC1` | 3.448 |
| `c1ccc(Cc2noc(CNC3CCc4ncnn4C3)n2)cc1` (stereo not given) | -3.312 & 2.694 & -4.762 |
| `O=C(N[C@@H]1CC[C@@H](n2ccnc2)[C@@H]1O)c1cc2c(s1)CCC2` | -7.066 |
| `O=C(C[S+]([O-])Cc1ccc(F)cc1)N1CCc2sccc2C1` (stereo not given) | -0.2176 |
| `O=C(CO)N1CCc2onc(Cn3cccn3)c2C1` | -1.454 |
| `COc1ccc(C[C@H]2CN(c3nnc(C)s3)CC[C@@H]2OC)cc1.O=C(O)C(F)(F)F` | 3.139 |
| `O=C(c1ccccc1)N1CCCC(Nc2ccc(F)cc2)C1` (stereo not given) | -7.281 |
| `O=C(O)C(F)(F)F.c1ccc(CN2CCc3ncnc(C4CC4)c3CC2)cc1` | 9.28 & 13.07 |
| `COc1cccc(N2CCN(CC(O)c3cc(C)ccc3C)CC2)c1` (stereo not given) | 3.495 |
| `O=C(Cc1c(F)cccc1Cl)N1CCC(Nc2cccnn2)CC1` | 1.49 |
| `O=C(O)C(F)(F)F.[H][C@@]12OCCN(c3ncccn3)[C@@]1([H])CC[C@H]2OCC1CCOCC1` | -8.406 |
| `Cc1cc(C(=O)O)cc(S(=O)(=O)Nc2ccc3c(c2)OCCCO3)c1C` | 3.546 & -0.5757 & 17.55 |
| `CSC(C)C(=O)NCc1ccc(-n2cncn2)nc1` (stereo not given) | -7.358 |
| `CC1(C(=O)NC2CCCC2)CCCN(c2ncccn2)C1` (stereo not given) | 10.63 |
| `CCCOc1ccc(CNC(=O)N2CCC(C(N)=O)C2)cc1` (stereo not given) | -11.1 |
| `O=C(O)C(F)(F)F.[H][C@]12CCN(c3ncccn3)[C@@]1([H])CC[C@H](COCC(=O)N1CCCC1)O2` | -4.584 |
| `Cc1cc(C(=O)N2CCCC(C)C2)ccc1NCc1nc(C2CC2)no1` (stereo not given) | -20.19 & -16 & 15.03 |
| `Cc1csc(N2CCN(CC(=O)NC3CCOCC3)CC2C)n1` (stereo not given) | -8.132 |
| `Cc1nc(CCNC(=O)NC(C)Cn2cccn2)cs1` (stereo not given) | 5.602 |
| `O=C(Cn1cc(I)cn1)N1CCCC1` | -2.412 |
| `CCn1nc(C)c(NC(=O)c2cc(NC(=O)C3CC3)n(C)n2)c1C` | -15.45 |
| `COc1cc(C)nc(N2CCN(C(=O)CN(C)C3CC3)CC2)n1` | -2.254 |
| `CC(C)CN(Cc1nc2c(cnn2C)c(=O)[nH]1)C(C)C` | -2.093 |
| `Cc1cc(C)n(Cc2ccc(C(=O)N3CCOCC3(C)C)cc2)n1` | 4.386 |
| `CC(=O)N1CCC(Cc2nccnc2-c2ccnn2C)CC1` | 7.625 |
| `CSC(CNS(N)(=O)=O)c1cccc(Cl)c1` (stereo not given) | -17.83 |
| `CC(=O)N1CCC(C(=O)NCCc2c[nH]c3cc(C)ccc23)CC1` | -4.304 |
| `CC(C)Nc1ncnc2c1CCN(C(=O)CN(C)C)CC2` | 5.351 |
| `COCCO[C@H]1CCN(C(=O)C2CCOCC2)[C@H]1Cc1ccncc1` | 5.19 |
| `CC(C)COCc1cncc2c1CCN(Cc1cnn(C)c1)C2.O=C(O)C(F)(F)F.O=C(O)C(F)(F)F` | 2.181 |
| `Cc1cc(C(=O)NCc2ccnc(N3CCN(C)CC3)c2)c(C)s1` | 8.696 |
| `O=C(N1CCCC1)N1CCn2c(Cn3cccn3)cnc2C1` | -5.219 |
| `CN(C)c1ccccc1C(=O)N1C[C@@H](CN2CCC(O)CC2)[C@@H](CO)C1` | -15.53 |
| `Cc1cc(CN2CCC(CNC(=O)c3nccc4ccccc34)C2)[nH]n1` (stereo not given) | -1.615 |
| `O=C(O)C(F)(F)F.O=C(O)C(F)(F)F.O=C(O)C(F)(F)F.[H][C@@]12COC[C@@H](N3CCN(C)CC3)[C@]1([H])CN(Cc1ccc(OC)cc1)C2` | -6.858 |
| `CCc1cc(N[C@H]2CC[C@H](O)CC2)n2nc(C)c(C)c2n1` | 1.568 |
| `O=C1NCCC12CN(CC1CC1)CC21CCNCC1` (stereo not given) | 5.988 |
| `COc1ccc(C2=CCN(C(=O)CN(C)S(C)(=O)=O)CC2)cc1` | -0.23 |
| `Cc1ccc(CN(C)C(=O)CN2CCCC2Cn2cccn2)o1` (stereo not given) | -5.294 |
| `Cc1nc(CN2CCC3(CCN(c4cnn(C)c4)C3=O)C2)cs1.O=C(O)C(F)(F)F` (stereo not given) | 7.42 |
| `Cc1nsc(NCc2ccc(S(=O)(=O)N(C)C(C)C)cc2)n1` | 9.829 |
| `COc1ccc(CC(=O)N2CCCC(Cn3cc(CN)nn3)C2)cc1` (stereo not given) | -23.76 & -22.07 |
| `CC(C)N(CCC#N)C(=O)c1cnc(-c2ccc3c(c2)OCO3)s1` | -35.98 & -30.64 |
| `[H][C@@]12CCN(Cc3scnc3C)C[C@]1([H])OCCN(c1ccccc1)C2=O` | 4.729 |
| `Cc1ccsc1CN(C)C(=O)c1cc2c([nH]c1=O)CCCC2=O` | 9.205 |
| `Cc1ccc(C(C)N(C)Cc2nc3c(cnn3C)c(=O)[nH]2)cc1` (stereo not given) | -5.43 |
| `Cc1ccccc1OCCn1cnc2oc(C)c(C(=O)O)c2c1=O` | 4.758 |
| `O=C(O)c1c[nH]c2cc(NS(=O)(=O)c3cccc(F)c3F)ccc12` | 19.67 |
| `Cc1cc(C)c(CNC(=O)NCC(O)c2ccccc2)c(=O)[nH]1` (stereo not given) | -6.194 |
| `CSc1nccc(N2CCC3(CCCN(CC4CC4)C3)C2)n1` (stereo not given) | 0.4325 |
| `CN(C)c1cc(C(=O)N2CCCN(Cc3cscn3)CC2)ccn1` | 2.844 |
| `Cc1cc(C)c2c(c1)C(NC(=O)CSCC(N)=O)CCO2` (stereo not given) | -8.343 |
| `COc1cc(C)ccc1OCC(=O)NS(=O)(=O)c1ccc(Br)s1` | 3.174 |
| `CNC(=O)CCc1cc(C)nc(C2CCN(c3cnccn3)CC2)c1` | 18 |
| `Cc1ncsc1C(=O)NCCCN1CCCCCC1=O` | -0.5372 |
| `O=C(NCC1OCCc2cn(CC3CCOCC3)nc21)c1ccncc1.O=C(O)C(F)(F)F` (stereo not given) | 11.28 |
| `Cc1cc(C)n(C2CCCN(C(=O)c3cc(C4CC4)on3)C2)n1` (stereo not given) | -10.17 |
| `OCC1CCCN1c1cc(NCc2cccc3cccnc23)ncn1` (stereo not given) | 1.654 |
| `O=C(NCc1nnc2n1CCC2)c1cn(-c2ccccc2Br)nn1` | 5.623 |
| `CCOC(=O)N1CC(=O)N(Cc2cccc(OC)c2OC)CC(O)C1` (stereo not given) | -31.34 |
| `CO[C@@H]1CCC[C@@H](NC(=O)CCCn2cncn2)[C@H]1O` | 2.254 |
| `COc1ccc(Nc2nc3c(C)nn(C)c3c(=O)n2C)c(OC)c1` | -6.979 |
| `[H][C@@]12CCN(c3ncccn3)C[C@]1([H])[C@H](C(=O)N1CCN(C)CC1)CCO2` | -2.489 |
| `CC(C)Oc1ncccc1CNC(=O)N1CCC1c1ccccc1` (stereo not given) | 13.85 |
| `Cc1nccn1C1CCCN(C(=O)c2cccc(S(C)(=O)=O)c2)C1` (stereo not given) | 11.76 |
| `Cn1ccc(C(=O)NC2CCC23CCN(C(=O)C2CCOCC2)CC3)c1` (stereo not given) | 3.872 |
| `Cc1nccc(C2CCCN(C(=O)c3cncnc3)C2)n1` (stereo not given) | 9.678 |
| `O=C(NCC1CCCO1)N1CCN(Cc2ccc3c(c2)CCO3)CC1` (stereo not given) | 0.2693 |
| `Cc1cc(NC(=O)CCN2CCCCC2Cn2cncn2)no1` (stereo not given) | 5.932 |
| `O=C(c1ccco1)N1CCCC(c2cc(C(F)(F)F)n3ncnc3n2)C1` (stereo not given) | 3.331 |
| `COc1c(C2CCCN2C(=O)c2nccnc2N)c(C)nn1C` (stereo not given) | 7.358 |
| `Cc1nc(CN2CCC3(CCN(c4ncc(F)cn4)C3)C2=O)cs1.O=C(O)C(F)(F)F` (stereo not given) | -1.229 |
| `Cc1ncsc1C(=O)N(Cc1cccnc1)C1CC1` | 6.924 |
| `CCc1nc2n(n1)CC(NCc1nc(-c3cccnc3)no1)CC2` (stereo not given) | -5.128 |
| `O=C(O)C(F)(F)F.[H][C@@]12CCN(Cc3ccc(C)cc3)C[C@]1([H])O[C@@H](C(=O)N(C)C)C2` | -19.22 |
| `CC(=O)N1CCn2c(nnc2C2CCCCN2C(C)=O)C1` (stereo not given) | 8.507 |
| `Cc1c(Cn2ccnc2-c2cc(CN(C)C)cs2)cnn1C` | -23.89 |
| `CN(CC1COc2ccccc2O1)C(=O)CCn1cncn1` (stereo not given) | 5.991 |
| `COCCN1CCc2cc(C(=O)NC(C)C)c(NCC3CC3)nc2CC1.O=C(O)C(F)(F)F.O=C(O)C(F)(F)F` | -6.228 |
| `Cc1nc(C2CCCN2C(=O)Cc2ccc(F)cc2)ncc1C(N)=O` (stereo not given) | 9.26 |
| `CN1N=C(C(=O)Nc2cc(F)ccc2OCC2CCCO2)CCC1=O` (stereo not given) | 8.831 |
| `CC(C)(C)n1cc(C(=O)NCCCn2ccnc2)c2cccnc21` | 10.6 |
| `Cc1ccc(CN2CCC3(CC2)C(=O)N(CCO)CCN3C)o1.O=C(O)C(F)(F)F.O=C(O)C(F)(F)F` | 5.817 |
| `CC(=O)Nc1c(C)noc1/C=C\c1ccc(S(=O)(=O)NC2CC2)cc1` | -5.998 |

Once more, the final 8:

Result for Cc1c(Cn2ccnc2-c2cc(CN(C)C)cs2)cnn1C was -23.89%.
Result for CN(CC1COc2ccccc2O1)C(=O)CCn1cncn1 (stereo not given) was 5.991%.
Result for COCCN1CCc2cc(C(=O)NC(C)C)c(NCC3CC3)nc2CC1.O=C(O)C(F)(F)F.O=C(O)C(F)(F)F was -6.228%.
Result for Cc1nc(C2CCCN2C(=O)Cc2ccc(F)cc2)ncc1C(N)=O (stereo not given) was 9.26%.
Result for CN1N=C(C(=O)Nc2cc(F)ccc2OCC2CCCO2)CCC1=O (stereo not given) was 8.831%.
Result for CC(C)(C)n1cc(C(=O)NCCCn2ccnc2)c2cccnc21 was 10.6%.
Result for Cc1ccc(CN2CCC3(CC2)C(=O)N(CCO)CCN3C)o1.O=C(O)C(F)(F)F.O=C(O)C(F)(F)F was 5.817%.
Result for CC(=O)Nc1c(C)noc1/C=C\c1ccc(S(=O)(=O)NC2CC2)cc1 was -5.998%.